Assay results published in US20050182122A1, “Method of treating abnormal cell growth using indolinone compounds” (priority 2003, published 2005).
Some of these results come from one statement about several compounds together.

Assay: unbound fraction of total blood/plasma concentration
Assay type: in vivo
Details: typical

Structure (SMILES)	unbound, available fraction of total blood/plasma concentration
CCN(CC)CCNC(=O)c1c(C)[nH]c(/C=C2\C(=O)Nc3ccc(F)cc32)c1C [Compound 1, 5-(5-fluoro-2-oxo-1,2-dihydroindol-(3Z)-ylidenemethyl)-2,4-dimethyl-1H-pyrrole-3-carboxylic acid (2-diethylaminoethyl)-amide]	5-10%
CCNCCNC(=O)c1c(C)[nH]c(/C=C2\C(=O)Nc3ccc(F)cc32)c1C [Compound 2, 5-(5-fluoro-2-oxo-1,2-dihydroindol-(3Z)-ylidenemethyl)-2,4-dimethyl-1H-pyrrole-3-carboxylic acid (2-ethylaminoethyl)-amide]	5-10%
